Laboratory results taken from patent publication US11051513B2, “Pyridone compounds and agricultural and horticultural fungicides containing the same as active ingredients” (MITSUI CHEMICALS AGRO, INC., priority 2017, dated 2021).
Some entries share one result that the patent states for a list of compounds.

Legend:
Magnaporthe grisea = format: in vivo; conditions: 250 ppm sprayed (2.5 ml/pot) on rice (Sachikaze); disease development 6 to 10 days after inoculation
Puccinia recondita = experiment: Test Example E: Brown rust on wheat; format: in vivo; conditions: 250 ppm sprayed (2.5 ml/pot) on wheat (Norin 61); disease development 7 to 10 days after inoculation
Botrytis cinerea = experiment: Test Example B: Gray mold on tomato; conditions: 250 ppm sprayed (2.5 ml/pot) on tomato (Oogata Fukuju); disease development 2 to 3 days after inoculation
Plasmopara viticola = experiment: Test Example G: Downy mildew on vine; conditions: 250 ppm sprayed (2.5 ml/pot) on grape (Neomuscat); disease development 7 to 10 days after inoculation
[1] = tested on: Colletotrichum orbiculare; experiment: Test Example H: Anthracnose on cucumber; conditions: 250 ppm sprayed (2.5 ml/pot) on cucumber (Sagami Hanjiro); disease development 6 to 10 days after inoculation
Alternaia brassicicola = experiment: Test Example C: Alternaria sooty spot on cabbage; conditions: 250 ppm sprayed (2.5 ml/pot) on cabbage (Shikidori); disease development 2 to 3 days after inoculation

Measured: control value

COc1ccc(-c2c(-c3cccc(OC)c3Cl)cc(Br)c(=O)n2C)cc1 [compound 136]
> 50%: all assays above

N#Cc1ccc(-c2c(-c3ccccc3Cl)cc(Br)c(=O)n2CC(F)F)cc1 [compound 339]
> 50%: all assays above

CCn1c(-c2ccc(F)cc2)c(-c2cc(F)ccc2C)cc(Br)c1=O [compound 474]
> 50%: all assays above

O=C1CCC(c2ccccc2Cl)=C(c2ccc(F)cc2)N1CC(F)(F)F [compound 409]
> 50%: Magnaporthe grisea | Puccinia recondita | Plasmopara viticola | [1]

Cn1c(-c2ccc(F)cc2)c(-c2ccccc2Cl)ccc1=O [compound 110]
> 50%: all assays above

Cn1c(-c2ccc(Cl)cc2)c(-c2ccccc2Cl)ccc1=O [compound 114]
> 50%: all assays above

Cn1c(-c2ccc(Cl)cc2)c(-c2ccccc2Cl)cc(Br)c1=O [compound 142]
not listed: [1]
> 50%: all other assays above

CCn1c(-c2ccc(F)cc2)c(-c2ccc(Br)cc2Cl)ccc1=O [compound 386]
not listed: Botrytis cinerea
> 50%: all other assays above

COc1ccc(-c2c(-c3cc(F)ccc3Cl)cc(Cl)c(=O)n2C)cc1 [compound 52]
> 50%: all assays above

COc1cc(-c2ccccc2Cl)c(-c2ccc(F)cc2)n(CC(F)F)c1=O [compound 410]
> 50%: Magnaporthe grisea | Botrytis cinerea | Plasmopara viticola | [1]

COc1ccc(-c2c(-c3cc(OC)ccc3Cl)cc(Br)c(=O)n2C)cc1 [compound 77]
> 50%: all assays above

Cn1c(-c2ccccc2)c(-c2cccc(F)c2Cl)ccc1=O [compound 93]
> 50%: all assays above

Cn1c(-c2ccccc2)c(-c2cc(F)ccc2Cl)ccc1=O [compound 81]
> 50%: all assays above

CCn1c(-c2ccccc2)c(-c2ccccc2C)ccc1=O [compound 538]
not listed: Puccinia recondita
> 50%: all other assays above

Cn1c(-c2ccc(F)cc2)c(-c2ccccc2Cl)cc(Cl)c1=O [compound 149]
> 50%: all assays above

CCn1c(-c2ccccc2)c(-c2cccc(F)c2Cl)ccc1=O [compound 87]
> 50%: all assays above

CCn1c(-c2ccc(F)cc2)c(-c2cc(OCC3OCCO3)ccc2Cl)cc(Cl)c1=O [compound 258]
> 50%: all assays above

CCn1c(-c2ccc(F)cc2)c(-c2cccc(OCSC)c2Cl)cc(Cl)c1=O [compound 273]
> 50%: all assays above

CCn1c(-c2ccc(F)cc2)c(-c2ccc(Br)cc2Cl)cc(Cl)c1=O [compound 387]
> 50%: all assays above

CCn1c(-c2ccc(OCC#N)cc2)c(-c2cc(F)cc(F)c2Cl)cc(Cl)c1=O [compound 235]
> 50%: all assays above

CCn1c(-c2ccc(F)cc2)c(-c2cc(OCCOC)ccc2Cl)cc(Br)c1=O [compound 433]
> 50%: all assays above

Cn1c(-c2ccc(F)cc2)c(-c2ccc(F)cc2Cl)ccc1=O [compound 345]
> 50%: all assays above

CCn1c(-c2ccc(OC)cc2)c(-c2ccccc2Cl)cc(Br)c1=O [compound 152]
not listed: [1]
> 50%: all other assays above

COc1ccc(-c2c(-c3cc(OC)ccc3Cl)cc(Cl)c(=O)n2C)cc1 [compound 76]
> 50%: all assays above

Cn1c(-c2ccccc2)c(-c2cc(F)ccc2Cl)cc(Cl)c1=O [compound 82]
> 50%: all assays above

Cc1ccc(C)c(-c2ccc(=O)n(CC(F)F)c2-c2ccccc2)c1 [compound 483]
> 50%: Magnaporthe grisea | Plasmopara viticola | [1]

Cn1c(-c2ccc(F)cc2)c(-c2ccc(F)cc2Cl)cc(I)c1=O [compound 348]
not listed: Alternaia brassicicola
> 50%: all other assays above
